# Laboratory results: patent US6296870A, “Liposomes containing active agents” (Duke University, priority 1998, dated 2001)
# For at least one compound, name, drawing or mass did not settle the structure.
# Legend:
# [1] = MOPC uptake into and desorption from single vesicles, micropipet lysolipid exchange; type: physicochemical; details: 4 mol % PEG-lipid; log vs log slope
# Method: I. du Pont de Nemours and Co.) disc and the chloroform evaporated under nitrogen. Final traces of solvent were removed by placing the disc in an evacuated desiccator for 2 hours (Needham and Nunn, Biophys. J. 58:997 (1990)). The so-formed dried lipid layers were prehydrated with water vapor in a nitrogen carrier gas and then fully hydrated overnight in a sucrose solution at 40° C. […] Both the pure SOPC and SOPC/PEG(750)-lipid vesicles were re-suspended in a glucose solution of 205 mOsm for use in micromanipulation experiments as described below. […] The microscope images were recorded using a COHU CCD camera. […] The pipettes were connected to a manometer system that allowed the applied pressures to be changed and measured to an accuracy of 2 microatmospheres. The micropipet suction pressures were measured by differential transducer (Validyne DP15-24). The measured pressures together with real time were multiplexed on the recorded images with a multiplexer (Model 401, Vista Electronics, La Mesa, Calif., USA). The recorded images were used to measure the change of the vesicle projection length inside the holding pipet during uptake and desorption of lysolecithin, and to calculate the membrane tension. […] The vesicle projection length (Lp) inside the holding pipet is measured and the effects of various solutions on the Lp of the test vesicle are compared. […]
# [2] = cited from earlier work
smiles,measurement,setting,value
"CCCCCCCC/C=C\CCCCCCCC(=O)OC[C@@H](O)COP(=O)([O-])OCC[N+](C)(C)C [MOPC, mono-oleoyl-phosphatidylcholine]","monomer aggregation ratio bilayer : aqueous, below CMC",[1],1:3
same,CMC in words,[2],in the micromolar range
